Experimental data reported in patent US11247985B2, “Phenyl indole allosteric inhibitors of P97 ATPase” (University of Pittsburgh—Of the Commonwealth System of …, priority 2015, dated 2022).
For at least one compound, name, drawing or mass did not settle the structure.

The chains behind the UniProt entries cited, without tags or fusion partners.
UniProt P55072, whole entry: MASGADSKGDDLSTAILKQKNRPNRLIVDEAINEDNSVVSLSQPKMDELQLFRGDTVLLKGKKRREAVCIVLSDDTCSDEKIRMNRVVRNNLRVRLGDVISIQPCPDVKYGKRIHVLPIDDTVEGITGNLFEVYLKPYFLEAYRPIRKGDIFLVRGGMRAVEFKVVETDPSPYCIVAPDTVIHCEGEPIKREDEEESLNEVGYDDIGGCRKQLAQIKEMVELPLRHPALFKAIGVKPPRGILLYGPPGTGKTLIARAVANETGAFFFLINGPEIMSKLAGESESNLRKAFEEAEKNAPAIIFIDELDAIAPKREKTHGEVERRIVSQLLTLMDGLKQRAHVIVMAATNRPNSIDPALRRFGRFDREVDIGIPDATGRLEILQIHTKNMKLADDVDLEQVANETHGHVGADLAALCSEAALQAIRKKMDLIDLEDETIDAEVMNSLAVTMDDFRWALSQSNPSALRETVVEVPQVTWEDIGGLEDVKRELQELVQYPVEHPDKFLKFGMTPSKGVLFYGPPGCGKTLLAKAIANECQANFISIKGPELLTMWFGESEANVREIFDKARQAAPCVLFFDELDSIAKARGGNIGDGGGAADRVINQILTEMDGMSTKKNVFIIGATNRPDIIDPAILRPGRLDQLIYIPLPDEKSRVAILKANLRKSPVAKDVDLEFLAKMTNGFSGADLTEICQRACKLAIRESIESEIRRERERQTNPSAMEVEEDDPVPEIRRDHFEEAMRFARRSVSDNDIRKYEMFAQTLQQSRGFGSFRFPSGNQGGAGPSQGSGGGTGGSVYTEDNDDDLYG

Target: p97 ATPase WT (Homo sapiens (Human), UniProt P55072)
Assay: p97 ADP-Glo assay
Assay type: biochemical
Settings: relative to compound 12
Text: ADP-Glo™ (Promega Corp.) is a bioluminescent, homogeneous assay that measures ADP formed from a biochemical reactions. Because of its high sensitivity, the assay is suitable for monitoring enzyme activities at very early substrate conversions requiring very low amount of enzymes.
The ADP-Glo assay can be conducted as described in Chou, T.-F.; Bulfer, S. L.; Weihl, C.

Question: For `CC(C)N1CCN(CCNC2CCN(c3cccc(-c4cc5cc(S(F)(F)(F)(F)F)ccc5[nH]4)c3)CC2)CC1` [Compound 13, 1-{3-[5-(Pentafluoro-λ^6-sulfanyl)-1H-indol-2-yl]phenyl}-N-{2-[4-(propan-2-yl)piperazin-1-yl]ethyl}piperidin-4-amine], which “reduction of p97 inhibition on replacing CF3 (12) with SF5” value is on record?
Answer: ~4 fold
